Where a chain is given by its changes, count along the chain named. Results are given in words; binding and its absence hold for the method and conditions named. Binding seen in cells or lysates may run through a third protein. Some entries that bind do so weakly or less than the wild type. Tags and fused reporters may be left off the sequences shown.
Key:
[1] = biological target: T1, Flag-CASTOR1 WT (human cytosolic arginine sensor for mTORC1 subunit 1) (human) (UniProt Q8WTX7); assay: co-IP; CASTOR1 with AKT1, AKT1 domains or endogenous AKT; cells not given; lysis in 50 mM Tris-HCl pH 7.4, 150 mM NaCl, 1 mM EDTA, 1% Triton X-100; antibody-conjugated agarose beads at 4 °C overnight; immunoblot
T1 sequence: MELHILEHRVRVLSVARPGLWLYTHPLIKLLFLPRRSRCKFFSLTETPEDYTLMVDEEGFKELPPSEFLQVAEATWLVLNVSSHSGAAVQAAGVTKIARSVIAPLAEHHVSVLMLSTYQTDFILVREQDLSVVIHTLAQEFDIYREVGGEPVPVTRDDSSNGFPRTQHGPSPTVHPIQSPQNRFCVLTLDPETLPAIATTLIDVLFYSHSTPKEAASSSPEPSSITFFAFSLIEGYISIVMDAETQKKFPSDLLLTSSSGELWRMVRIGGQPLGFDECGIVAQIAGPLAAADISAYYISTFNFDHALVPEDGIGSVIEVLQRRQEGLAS

The chains behind the UniProt entries cited, without tags or fusion partners. Where a name states a change or a piece, a line headed by the entry shows the natural chain unless it says otherwise.
UniProt P31749: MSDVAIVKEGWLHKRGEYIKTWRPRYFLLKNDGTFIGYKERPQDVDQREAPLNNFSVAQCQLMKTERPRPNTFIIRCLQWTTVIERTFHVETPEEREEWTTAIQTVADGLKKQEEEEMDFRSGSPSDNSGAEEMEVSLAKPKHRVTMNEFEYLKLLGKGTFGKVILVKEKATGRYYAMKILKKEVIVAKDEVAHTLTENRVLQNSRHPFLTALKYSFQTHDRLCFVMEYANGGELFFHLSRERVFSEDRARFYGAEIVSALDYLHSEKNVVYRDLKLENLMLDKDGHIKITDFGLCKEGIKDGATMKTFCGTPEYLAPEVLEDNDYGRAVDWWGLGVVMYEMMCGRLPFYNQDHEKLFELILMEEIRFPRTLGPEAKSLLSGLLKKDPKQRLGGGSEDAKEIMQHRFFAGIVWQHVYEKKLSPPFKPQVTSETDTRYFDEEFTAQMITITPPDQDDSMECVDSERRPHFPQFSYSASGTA

[2] = biological target: T2, Flag-CASTOR1 S14D (human) (UniProt Q8WTX7); assay: as above
T2 sequence: T1 sequence with S14D

| binding [1] | binding [2] | Substance |
| --- | --- | --- |
| binds |  | AKT1 kinase domain (HA-AKT1-120-433aa) (from UniProt P31749 120-433) (domain or fragment) |
| binds | binds | ectopically expressed AKT1 (from UniProt P31749 1-480) (enzyme) |

— paper PMC7887217
